Patent US20190336574A1 (TRUSTEES OF PRINCETON UNIVERSITY, published 2019)
No constants are given. Whether binding was seen depends on the method and setting. For some of these results: Binding seen in cells or lysates may run through a third protein. Some results given as binding are weak or reduced against the parent protein; the word gives no strength. For some of these results: Tags and fused reporters may be left off the sequences shown.

Legend:
[1] = target: T1, His6-SND1ΔC (SND1 residues 1-339) (human, UniProt Q7KZF4 1-339); assay: GST pull-down of His6-SND1ΔC, SDS-PAGE, Coomassie
T1 construct: not shown: N-terminal His tag (His6, His8 or His) with TEV site, pQlink vector
T1 sequence: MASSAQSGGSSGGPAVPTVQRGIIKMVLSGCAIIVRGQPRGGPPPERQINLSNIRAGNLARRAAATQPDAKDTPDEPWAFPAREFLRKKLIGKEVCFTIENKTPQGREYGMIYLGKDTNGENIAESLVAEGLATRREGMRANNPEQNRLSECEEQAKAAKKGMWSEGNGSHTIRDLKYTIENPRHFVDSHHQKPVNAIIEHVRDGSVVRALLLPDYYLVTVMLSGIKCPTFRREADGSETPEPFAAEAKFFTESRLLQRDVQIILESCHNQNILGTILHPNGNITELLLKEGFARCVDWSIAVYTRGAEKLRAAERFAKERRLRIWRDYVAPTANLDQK
Source text: (§1) FIGS. 7A-E represents determination of key regions and residues mediating the MTDH-SND1 interaction. (FIG. 7A) Schematics of MTDH fragments and mutants with indicated SND1-binding capability. + indicates binding and − indicates no binding based on results shown below. Two putative nuclear localization signals are residues 432-451 for NLS2 and residues 561-580 for NLS3. […] (FIG. 7B) Pulldown of His6-SND1ΔC by GST-tagged MTDH fragments with indicated boundaries. The bound proteins were examined by SDS-PAGE and visualized by Coomassie blue staining. […] For (FIG. 7B) and (FIG. 7C), 1/10 of the His6-SND1ΔC input was shown, and GST alone was used as a negative control. Representative results of 3 independent experiments are shown. (FIG. 7D, FIG. 7E) Lysates from HEK293T cells expressing the indicated ectopic human SND1, AGO2 or MTDH were immunoprecipitated with anti-Myc and immunoblotted with the indicated antibodies.
TPM1 comprises mutations D389R, D393R and W394D. TPM2 comprises mutations E399R, E400R and W401D. TPM3 comprises mutations W404D, D406R and E407R. […] The mutations are also set out in Table 3.

[2] = target: T2, HA-SND1, full-length human, wild type (human, UniProt Q7KZF4 1-910); assay: competition in co-IP from 293T cells with HA-SND1 and MYC-MTDH (m36 is the competitor); peptide at 50 uM; the sheet prints IP: MYC, the legend says anti-HA [26B, 26C, 26D]
T2 sequence: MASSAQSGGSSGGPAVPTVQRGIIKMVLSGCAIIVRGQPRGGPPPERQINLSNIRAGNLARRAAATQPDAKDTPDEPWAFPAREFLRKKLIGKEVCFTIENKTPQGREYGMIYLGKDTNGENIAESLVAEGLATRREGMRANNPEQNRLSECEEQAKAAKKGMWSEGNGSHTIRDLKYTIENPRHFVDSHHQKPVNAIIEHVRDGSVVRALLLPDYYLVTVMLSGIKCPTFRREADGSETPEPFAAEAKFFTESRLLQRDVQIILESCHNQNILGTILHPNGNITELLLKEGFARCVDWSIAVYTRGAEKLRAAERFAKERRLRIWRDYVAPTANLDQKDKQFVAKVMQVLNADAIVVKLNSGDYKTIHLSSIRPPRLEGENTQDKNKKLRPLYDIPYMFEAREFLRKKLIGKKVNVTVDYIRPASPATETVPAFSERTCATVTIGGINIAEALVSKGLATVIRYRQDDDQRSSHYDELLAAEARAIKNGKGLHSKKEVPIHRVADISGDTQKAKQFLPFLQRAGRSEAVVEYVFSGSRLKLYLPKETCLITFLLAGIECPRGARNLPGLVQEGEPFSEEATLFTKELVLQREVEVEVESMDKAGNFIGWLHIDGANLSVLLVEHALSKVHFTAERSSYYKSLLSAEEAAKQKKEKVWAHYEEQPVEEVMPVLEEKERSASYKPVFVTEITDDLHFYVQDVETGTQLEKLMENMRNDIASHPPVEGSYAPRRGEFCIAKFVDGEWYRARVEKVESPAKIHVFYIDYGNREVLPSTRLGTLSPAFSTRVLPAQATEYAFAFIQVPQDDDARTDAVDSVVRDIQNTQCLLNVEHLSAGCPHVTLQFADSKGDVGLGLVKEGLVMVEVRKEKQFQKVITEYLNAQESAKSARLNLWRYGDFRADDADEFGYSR
Procedure: 293 T cells were co-transfected with HA-SND1 and MYC-MTDH. After 48 hours, the cells were collected and subject to immunoprecipitation assay. Cell lysate was incubated with anti-HA antibody or IgG overnight followed by a two hour incubation with Protein A/G beads to pull down HA-SND1 protein. The beads were washed with lysis buffer and split into five fractions.
The elution fractions and beads were collected for western blot. (FIGS. 26C and 26D) Cell lyaste was split into 6 fractions. One of the fractions was incubated with IgG and the rest were incubated with anti-HA antibody plus either buffer or indicated peptides. After 24 hours, the lysate was incubated with Protein A/G beads then the beads was washed followed by wash buffer. 50 uM of peptides was used in all the assays.

[3] = target: T1, His6-SND1ΔC (SND1 residues 1-339); assay: GST pull-down, SDS-PAGE, Coomassie blue
[4] = target: T1, His6-SND1ΔC (SND1 residues 1-339); assay: schematic that sums up the GST pull-downs of His6-SND1ΔC
Source text: as §1
To further test whether the physical interaction with SND1 is critical for the function of MTDH, detailed analysis on the interaction of the proteins was conducted. SND1 contains four N-terminal Staphylococcal nuclease (SN) repeats and a C-terminal Tudor-SN hybrid domain. […] This allowed us to use the SND1ΔC fragment for the following in vitro binding studies.

B1: GST-MTDH (386-407), wild type (peptide, not shown: a dimerising Fc or GST)
chain: SSADPNSDWNAPAEEWGNWVDE
B1 was tested, and the binding [1] was “binds”.

B2: Peptide-401A (PNSDWNAPAEEAGNW) (peptide)
peptide: PNSDWNAPAEEAGNW
notes: also called peptide comprising the single point mutation W401A
For B2, the binding [2] was “binds”.

B3: GST-MTDH 364-407 (peptide)
fusion protein: YQWDVSRNQPYIDDEWSGLNGLSSADPNSDWNAPAEEWGNWVDE
B3 was tested, and the binding [3] was “binds” and the binding [4] was “binds”.
